According to the supplement of paper PMC10849652:
Some of the results follow.

The chains behind the UniProt entries cited, without tags or fusion partners. Where a name states a change or a piece, a line headed by the entry shows the natural chain unless it says otherwise.
UniProt P20936: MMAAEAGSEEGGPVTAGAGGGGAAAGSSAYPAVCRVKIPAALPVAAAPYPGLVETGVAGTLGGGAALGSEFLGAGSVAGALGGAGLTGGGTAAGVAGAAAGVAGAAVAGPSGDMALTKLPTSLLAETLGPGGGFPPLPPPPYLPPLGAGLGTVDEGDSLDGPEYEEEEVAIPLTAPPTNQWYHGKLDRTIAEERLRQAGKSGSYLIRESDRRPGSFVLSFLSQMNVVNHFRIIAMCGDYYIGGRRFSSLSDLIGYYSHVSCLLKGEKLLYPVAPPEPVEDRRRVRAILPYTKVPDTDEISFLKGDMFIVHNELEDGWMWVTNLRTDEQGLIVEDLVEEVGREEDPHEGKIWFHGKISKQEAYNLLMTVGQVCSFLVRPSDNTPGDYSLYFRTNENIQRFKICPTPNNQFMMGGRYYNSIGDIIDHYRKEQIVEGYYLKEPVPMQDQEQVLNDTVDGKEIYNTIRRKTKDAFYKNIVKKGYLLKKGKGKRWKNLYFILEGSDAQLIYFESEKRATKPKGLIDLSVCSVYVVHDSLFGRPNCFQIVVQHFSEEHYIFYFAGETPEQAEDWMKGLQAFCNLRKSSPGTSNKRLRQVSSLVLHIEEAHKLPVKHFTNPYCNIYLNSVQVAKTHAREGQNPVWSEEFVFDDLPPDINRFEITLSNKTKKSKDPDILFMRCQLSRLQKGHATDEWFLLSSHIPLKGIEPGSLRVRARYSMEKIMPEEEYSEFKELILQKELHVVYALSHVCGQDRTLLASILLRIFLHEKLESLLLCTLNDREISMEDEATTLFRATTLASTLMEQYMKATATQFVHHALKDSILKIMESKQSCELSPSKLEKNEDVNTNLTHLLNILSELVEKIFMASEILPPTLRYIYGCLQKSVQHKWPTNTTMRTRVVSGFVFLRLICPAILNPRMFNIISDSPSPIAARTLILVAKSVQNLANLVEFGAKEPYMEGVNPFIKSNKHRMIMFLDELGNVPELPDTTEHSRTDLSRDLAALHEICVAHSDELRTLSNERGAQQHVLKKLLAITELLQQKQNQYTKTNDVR
UniProt Q92930: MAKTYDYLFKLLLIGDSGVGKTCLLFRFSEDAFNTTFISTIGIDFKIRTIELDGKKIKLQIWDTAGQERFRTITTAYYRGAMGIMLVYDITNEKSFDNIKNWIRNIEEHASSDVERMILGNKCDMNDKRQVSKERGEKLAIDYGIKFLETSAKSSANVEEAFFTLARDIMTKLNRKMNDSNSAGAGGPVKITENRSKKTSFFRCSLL
UniProt Q9UKM9: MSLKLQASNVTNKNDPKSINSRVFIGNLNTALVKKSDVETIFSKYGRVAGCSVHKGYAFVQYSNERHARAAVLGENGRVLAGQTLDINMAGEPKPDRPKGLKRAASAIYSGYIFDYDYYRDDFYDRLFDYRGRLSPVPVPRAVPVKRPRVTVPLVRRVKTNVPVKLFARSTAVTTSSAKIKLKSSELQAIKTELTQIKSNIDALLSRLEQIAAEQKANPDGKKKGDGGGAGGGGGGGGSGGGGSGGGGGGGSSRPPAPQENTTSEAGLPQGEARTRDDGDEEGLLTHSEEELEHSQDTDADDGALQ
UniProt P62491: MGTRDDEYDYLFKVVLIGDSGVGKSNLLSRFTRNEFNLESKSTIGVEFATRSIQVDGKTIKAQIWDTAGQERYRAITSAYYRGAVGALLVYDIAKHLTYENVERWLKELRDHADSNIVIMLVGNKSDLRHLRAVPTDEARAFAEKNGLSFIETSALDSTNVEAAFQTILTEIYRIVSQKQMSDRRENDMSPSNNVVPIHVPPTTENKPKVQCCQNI
UniProt Q9P2N5: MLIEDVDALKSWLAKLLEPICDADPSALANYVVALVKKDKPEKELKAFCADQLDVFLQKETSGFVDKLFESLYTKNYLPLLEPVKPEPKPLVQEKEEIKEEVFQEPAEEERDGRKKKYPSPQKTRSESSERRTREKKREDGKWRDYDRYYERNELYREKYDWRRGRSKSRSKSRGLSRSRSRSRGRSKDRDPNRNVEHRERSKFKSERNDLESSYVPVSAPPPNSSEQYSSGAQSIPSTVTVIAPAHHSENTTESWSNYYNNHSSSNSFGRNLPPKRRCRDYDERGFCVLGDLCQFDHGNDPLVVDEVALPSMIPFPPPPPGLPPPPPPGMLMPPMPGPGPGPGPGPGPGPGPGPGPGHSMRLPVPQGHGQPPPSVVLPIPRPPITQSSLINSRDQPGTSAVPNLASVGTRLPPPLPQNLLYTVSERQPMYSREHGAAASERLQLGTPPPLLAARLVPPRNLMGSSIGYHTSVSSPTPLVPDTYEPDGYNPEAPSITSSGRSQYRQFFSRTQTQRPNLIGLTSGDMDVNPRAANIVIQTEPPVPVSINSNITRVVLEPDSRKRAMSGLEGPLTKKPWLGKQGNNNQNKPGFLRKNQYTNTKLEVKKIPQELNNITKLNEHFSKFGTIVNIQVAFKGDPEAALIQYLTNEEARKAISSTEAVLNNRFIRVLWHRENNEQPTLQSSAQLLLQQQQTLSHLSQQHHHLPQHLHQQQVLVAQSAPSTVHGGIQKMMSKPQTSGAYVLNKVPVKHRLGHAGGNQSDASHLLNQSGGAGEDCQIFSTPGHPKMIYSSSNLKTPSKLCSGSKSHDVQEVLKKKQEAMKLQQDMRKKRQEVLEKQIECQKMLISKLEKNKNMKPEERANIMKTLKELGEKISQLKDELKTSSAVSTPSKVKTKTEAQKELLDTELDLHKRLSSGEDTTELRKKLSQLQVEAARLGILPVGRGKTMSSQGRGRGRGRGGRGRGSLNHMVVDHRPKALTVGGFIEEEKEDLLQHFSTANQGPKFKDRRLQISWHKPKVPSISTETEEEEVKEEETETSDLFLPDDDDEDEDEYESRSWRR
UniProt Q06609, whole entry, looked up: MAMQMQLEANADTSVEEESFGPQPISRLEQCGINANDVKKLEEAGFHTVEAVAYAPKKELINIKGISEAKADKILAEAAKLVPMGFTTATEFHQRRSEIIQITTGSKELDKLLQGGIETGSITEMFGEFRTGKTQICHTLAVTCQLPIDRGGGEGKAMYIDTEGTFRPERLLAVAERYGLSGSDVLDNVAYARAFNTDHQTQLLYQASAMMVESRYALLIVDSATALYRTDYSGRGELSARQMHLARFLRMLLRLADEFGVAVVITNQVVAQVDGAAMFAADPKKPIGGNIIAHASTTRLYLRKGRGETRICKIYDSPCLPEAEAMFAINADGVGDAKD
UniProt P62834: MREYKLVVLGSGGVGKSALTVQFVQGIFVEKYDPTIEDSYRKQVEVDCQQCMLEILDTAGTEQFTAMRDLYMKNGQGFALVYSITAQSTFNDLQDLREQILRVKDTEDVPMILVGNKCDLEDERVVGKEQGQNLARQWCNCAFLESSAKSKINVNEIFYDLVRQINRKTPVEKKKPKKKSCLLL
UniProt Q8WWW0: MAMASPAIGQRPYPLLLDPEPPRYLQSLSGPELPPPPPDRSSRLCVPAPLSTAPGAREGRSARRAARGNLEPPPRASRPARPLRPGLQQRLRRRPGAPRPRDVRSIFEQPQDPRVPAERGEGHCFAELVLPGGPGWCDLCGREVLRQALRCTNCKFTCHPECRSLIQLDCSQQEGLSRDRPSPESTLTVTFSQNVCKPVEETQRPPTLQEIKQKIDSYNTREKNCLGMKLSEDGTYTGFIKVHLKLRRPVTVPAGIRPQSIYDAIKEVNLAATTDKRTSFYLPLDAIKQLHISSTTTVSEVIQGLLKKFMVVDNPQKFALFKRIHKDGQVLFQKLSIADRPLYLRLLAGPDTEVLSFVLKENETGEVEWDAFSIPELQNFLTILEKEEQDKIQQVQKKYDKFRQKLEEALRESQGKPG
UniProt Q99638: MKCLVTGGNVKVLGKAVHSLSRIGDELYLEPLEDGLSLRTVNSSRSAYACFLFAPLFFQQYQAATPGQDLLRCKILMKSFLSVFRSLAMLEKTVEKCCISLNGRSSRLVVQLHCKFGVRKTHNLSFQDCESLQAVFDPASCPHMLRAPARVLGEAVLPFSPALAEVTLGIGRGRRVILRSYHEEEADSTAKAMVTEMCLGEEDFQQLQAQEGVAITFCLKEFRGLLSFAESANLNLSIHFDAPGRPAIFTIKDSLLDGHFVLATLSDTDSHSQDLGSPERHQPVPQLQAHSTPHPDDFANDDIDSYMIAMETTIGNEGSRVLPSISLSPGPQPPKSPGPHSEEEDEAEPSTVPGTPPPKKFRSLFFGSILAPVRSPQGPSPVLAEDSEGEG
UniProt Q6VN20, whole entry, looked up: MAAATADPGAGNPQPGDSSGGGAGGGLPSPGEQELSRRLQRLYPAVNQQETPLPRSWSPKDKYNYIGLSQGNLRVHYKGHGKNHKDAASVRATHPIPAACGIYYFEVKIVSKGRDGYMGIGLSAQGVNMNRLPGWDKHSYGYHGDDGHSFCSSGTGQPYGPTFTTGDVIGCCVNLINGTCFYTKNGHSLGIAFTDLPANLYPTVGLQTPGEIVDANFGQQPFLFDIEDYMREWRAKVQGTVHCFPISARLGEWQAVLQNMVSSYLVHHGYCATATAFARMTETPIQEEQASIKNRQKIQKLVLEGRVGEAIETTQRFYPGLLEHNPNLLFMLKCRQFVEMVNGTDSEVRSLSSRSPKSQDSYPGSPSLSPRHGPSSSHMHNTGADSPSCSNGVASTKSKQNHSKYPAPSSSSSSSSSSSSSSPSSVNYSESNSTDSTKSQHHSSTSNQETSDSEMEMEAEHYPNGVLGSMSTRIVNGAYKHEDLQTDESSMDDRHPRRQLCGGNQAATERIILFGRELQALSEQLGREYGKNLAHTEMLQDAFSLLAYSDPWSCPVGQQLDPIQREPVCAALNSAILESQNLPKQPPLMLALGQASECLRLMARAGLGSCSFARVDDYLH
UniProt P61006: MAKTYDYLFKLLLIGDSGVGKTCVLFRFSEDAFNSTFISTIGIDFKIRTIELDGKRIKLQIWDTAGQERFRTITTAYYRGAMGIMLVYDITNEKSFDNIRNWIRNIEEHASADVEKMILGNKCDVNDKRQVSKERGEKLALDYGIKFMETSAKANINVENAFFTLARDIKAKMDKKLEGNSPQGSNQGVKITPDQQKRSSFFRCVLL
UniProt Q8TEU7: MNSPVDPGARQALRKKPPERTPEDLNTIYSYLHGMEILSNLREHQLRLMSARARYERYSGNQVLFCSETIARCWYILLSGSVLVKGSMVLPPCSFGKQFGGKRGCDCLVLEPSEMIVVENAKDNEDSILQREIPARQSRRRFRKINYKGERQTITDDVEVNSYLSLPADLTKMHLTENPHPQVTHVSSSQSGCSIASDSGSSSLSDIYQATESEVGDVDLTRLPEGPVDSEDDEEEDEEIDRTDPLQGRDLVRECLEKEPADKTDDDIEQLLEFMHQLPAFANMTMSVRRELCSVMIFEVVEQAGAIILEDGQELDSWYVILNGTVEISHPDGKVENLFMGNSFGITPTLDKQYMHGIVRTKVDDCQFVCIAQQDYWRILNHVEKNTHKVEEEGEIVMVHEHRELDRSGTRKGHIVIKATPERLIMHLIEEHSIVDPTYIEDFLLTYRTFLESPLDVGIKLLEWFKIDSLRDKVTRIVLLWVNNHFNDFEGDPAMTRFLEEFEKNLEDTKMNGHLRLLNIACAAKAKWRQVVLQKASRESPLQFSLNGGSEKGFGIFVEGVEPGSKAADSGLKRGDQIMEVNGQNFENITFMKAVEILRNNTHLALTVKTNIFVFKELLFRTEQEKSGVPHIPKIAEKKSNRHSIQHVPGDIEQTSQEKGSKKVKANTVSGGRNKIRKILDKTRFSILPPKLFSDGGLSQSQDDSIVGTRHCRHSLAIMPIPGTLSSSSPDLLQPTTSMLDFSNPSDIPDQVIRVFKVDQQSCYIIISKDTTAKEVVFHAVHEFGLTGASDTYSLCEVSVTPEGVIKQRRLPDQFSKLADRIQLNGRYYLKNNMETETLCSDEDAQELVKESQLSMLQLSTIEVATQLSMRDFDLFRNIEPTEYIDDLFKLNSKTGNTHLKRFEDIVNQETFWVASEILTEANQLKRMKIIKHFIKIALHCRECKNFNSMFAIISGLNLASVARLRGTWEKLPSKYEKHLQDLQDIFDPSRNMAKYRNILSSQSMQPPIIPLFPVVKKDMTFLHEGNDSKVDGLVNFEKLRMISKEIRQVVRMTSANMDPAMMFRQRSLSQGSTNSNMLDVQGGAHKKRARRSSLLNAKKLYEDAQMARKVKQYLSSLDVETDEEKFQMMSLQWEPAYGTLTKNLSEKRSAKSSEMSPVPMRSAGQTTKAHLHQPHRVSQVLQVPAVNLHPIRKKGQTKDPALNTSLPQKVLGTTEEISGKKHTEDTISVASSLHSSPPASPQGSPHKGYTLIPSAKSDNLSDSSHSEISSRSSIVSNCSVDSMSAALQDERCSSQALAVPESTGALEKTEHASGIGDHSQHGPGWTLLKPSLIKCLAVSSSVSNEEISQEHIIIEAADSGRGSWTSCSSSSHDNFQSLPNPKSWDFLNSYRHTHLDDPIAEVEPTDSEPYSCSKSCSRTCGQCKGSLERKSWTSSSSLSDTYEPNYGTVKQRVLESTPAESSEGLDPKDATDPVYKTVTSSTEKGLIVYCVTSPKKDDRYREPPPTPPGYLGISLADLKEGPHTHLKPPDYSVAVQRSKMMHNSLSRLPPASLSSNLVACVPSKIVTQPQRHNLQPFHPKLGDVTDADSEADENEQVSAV

Each target was assayed with Cn1cncc1[C@@](N)(c1ccc(Cl)cc1)c1ccc2c(c1)c(-c1cccc(Cl)c1)cc(=O)n2C [tipifarnib] (assay: log2 fold change, soluble protein after heating vs DMSO (PISA); higher = thermal stabilisation; K562 cells, 10 uM, 30 min; active = over 0.2 and 3.5 SD of the protein, either way, in both replicates (recomputed)).
Summary of the method: (§1)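 Thermal stability values are relative to control samples and come from duplicates. They are expressed as log2 fold changes. For measurement, K562 cells (2×10^6 cells/mL) received 10 μM compound for 30 min, and aliquots were heated for 3 min over 48°C-58°C, pooled, and extracted at 4°C in PBS with 0.5% NP-40. Soluble protein, the supernatant after 21,000xg for 90 min, was quantified by TMTpro 16plex LC-MS/MS with equalised channel sums.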
For RASA1 (UniProt P20936), the log2 fold change was inactive: -0.026. RAB11FIP1 (UniProt Q6WKZ4) was tested, and the log2 fold change was inactive: 0.003. RAB8B (UniProt Q92930) was tested, and the log2 fold change was inactive: -0.088. In the case of RAP1B (UniProt F5GZG1), the log2 fold change is reported as inactive: 0.171. For RBM22 (UniProt Q9NW64), the log2 fold change was inactive: 0.008. RALY (UniProt Q9UKM9) was tested, and the log2 fold change was inactive: -0.118. With RASA2 (UniProt Q15283) the log2 fold change was inactive: 0.337. For RAB11A (UniProt P62491), the log2 fold change was inactive: 0.031. For RALGAPB (UniProt Q86X10), the log2 fold change was inactive: -0.087. With RALGAPA1 isoform 6 (UniProt Q6GYQ0) the log2 fold change was inactive: -0.097. With RALBP1 (UniProt Q15311) the log2 fold change was inactive: 0.104. In the case of RANBP2 (UniProt P49792), the log2 fold change is reported as inactive: -0.036. For RBM27 (UniProt Q9P2N5), the log2 fold change was inactive: -0.005. In the case of RB1CC1 (UniProt Q8TDY2), the log2 fold change is reported as inactive: -0.069. In the case of RACK1 (UniProt D6RF23), the log2 fold change is reported as inactive: 0.113. In the case of RAD51 (UniProt Q06609), the log2 fold change is reported as inactive: 0.11. In the case of RAP1A (UniProt P62834), the log2 fold change is reported as inactive: 0.018. With RASSF5 (UniProt Q8WWW0) the log2 fold change was inactive: 0.021. RAB31 (UniProt Q13636) was tested, and the log2 fold change was inactive: 0.026. In the case of RAD9A (UniProt Q99638), the log2 fold change is reported as inactive: -0.021. In the case of RAD51AP1 (UniProt Q96B01), the log2 fold change is reported as inactive: 0.068. With RB1 (UniProt P06400) the log2 fold change was inactive: 0.004. In the case of RANBP10 (UniProt Q6VN20), the log2 fold change is reported as inactive: 0.027. For RACGAP1 (UniProt Q9H0H5), the log2 fold change was inactive: 0.169. With RAB6D (UniProt Q53S08) the log2 fold change was inactive: 0.01. In the case of RAN (UniProt P62826), the log2 fold change is reported as inactive: 0.02. In the case of RAB3GAP1 (UniProt Q15042), the log2 fold change is reported as inactive: -0.069. With RAPGEF2, A0A2R8YGD3 the log2 fold change was inactive: 0.048. With RALA (UniProt P11233) the log2 fold change was inactive: -0.06. For RANGAP1 (UniProt P46060), the log2 fold change was inactive: -0.079. RAB8A isoform 2 (UniProt P61006) was tested, and the log2 fold change was inactive: 0.017. With RAC1 (UniProt P63000) the log2 fold change was inactive: 0.106.

These targets were tested with FC(F)(F)c1ccc(/C=C/c2nc(COc3ccc(CCCCn4ccnn4)cc3)co2)cc1 [mubritinib] in the same assay as above.
Summary of the method: as §1
For RASA1 (UniProt P20936), the log2 fold change was inactive: 0.221. In the case of RAB11FIP1 (UniProt Q6WKZ4), the log2 fold change is reported as inactive: 0.003. For RAB8B (UniProt Q92930), the log2 fold change was inactive: -0.062. RAP1B (UniProt F5GZG1) was tested, and the log2 fold change was inactive: 0.04. RBM22 (UniProt Q9NW64) was tested, and the log2 fold change was inactive: -0.048. With RALY (UniProt Q9UKM9) the log2 fold change was inactive: -0.257. RASA2 (UniProt Q15283) was tested, and the log2 fold change was inactive: 0.035. With RAB11A (UniProt P62491) the log2 fold change was inactive: -0.023. With RALGAPB (UniProt Q86X10) the log2 fold change was inactive: 0.052. For RALGAPA1 isoform 6 (UniProt Q6GYQ0), the log2 fold change was inactive: 0.086. For RANBP2 (UniProt P49792), the log2 fold change was inactive: -0.073. RBM27 (UniProt Q9P2N5) was tested, and the log2 fold change was inactive: 0.023. With RB1CC1 (UniProt Q8TDY2) the log2 fold change was inactive: 0.026. RACK1 (UniProt D6RF23) was tested, and the log2 fold change was inactive: 0.091. In the case of RAD51 (UniProt Q06609), the log2 fold change is reported as inactive: -0.017. In the case of RAP1A (UniProt P62834), the log2 fold change is reported as inactive: 0.001. In the case of RASSF5 (UniProt Q8WWW0), the log2 fold change is reported as inactive: 0.096. In the case of RAPGEF6 isoform 4 (UniProt Q8TEU7), the log2 fold change is reported as inactive: 0. For RAB31 (UniProt Q13636), the log2 fold change was inactive: 0.015. For RAD9A (UniProt Q99638), the log2 fold change was inactive: 0.012. RAD51AP1 (UniProt Q96B01) was tested, and the log2 fold change was inactive: 0.039. With RB1 (UniProt P06400) the log2 fold change was inactive: 0.046. With RANBP10 (UniProt Q6VN20) the log2 fold change was inactive: 0.1. In the case of RACGAP1 (UniProt Q9H0H5), the log2 fold change is reported as inactive: -0.019. RAB6D (UniProt Q53S08) was tested, and the log2 fold change was inactive: 0.005. In the case of RAN (UniProt P62826), the log2 fold change is reported as inactive: 0.004. For RAB3GAP1 (UniProt Q15042), the log2 fold change was inactive: -0.077. In the case of RAPGEF2, A0A2R8YGD3, the log2 fold change is reported as inactive: -0.009. With RALA (UniProt P11233) the log2 fold change was inactive: 0.015. For RANGAP1 (UniProt P46060), the log2 fold change was inactive: 0.03. For RAB8A isoform 2 (UniProt P61006), the log2 fold change was inactive: -0.011. For RAC1 (UniProt P63000), the log2 fold change was inactive: 0.026.
